## Screening data, single-dose tests

Sequences of proteins named here, by UniProt entry; tags and fusion partners are left off. Residues count along the entry.
UniProt A4I591, 1-473: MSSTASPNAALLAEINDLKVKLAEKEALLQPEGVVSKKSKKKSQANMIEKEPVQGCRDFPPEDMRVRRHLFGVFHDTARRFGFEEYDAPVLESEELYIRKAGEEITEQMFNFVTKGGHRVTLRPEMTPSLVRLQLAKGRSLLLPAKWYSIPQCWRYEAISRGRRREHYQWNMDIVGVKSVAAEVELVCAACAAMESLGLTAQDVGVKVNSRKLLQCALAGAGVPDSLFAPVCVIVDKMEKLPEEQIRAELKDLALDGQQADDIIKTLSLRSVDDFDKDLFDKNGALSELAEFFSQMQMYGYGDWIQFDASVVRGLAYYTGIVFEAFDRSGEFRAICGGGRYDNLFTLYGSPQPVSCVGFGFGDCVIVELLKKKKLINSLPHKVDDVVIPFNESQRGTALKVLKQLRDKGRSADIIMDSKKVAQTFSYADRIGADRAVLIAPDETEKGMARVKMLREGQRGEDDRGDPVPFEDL
UniProt P9WNZ1, whole entry: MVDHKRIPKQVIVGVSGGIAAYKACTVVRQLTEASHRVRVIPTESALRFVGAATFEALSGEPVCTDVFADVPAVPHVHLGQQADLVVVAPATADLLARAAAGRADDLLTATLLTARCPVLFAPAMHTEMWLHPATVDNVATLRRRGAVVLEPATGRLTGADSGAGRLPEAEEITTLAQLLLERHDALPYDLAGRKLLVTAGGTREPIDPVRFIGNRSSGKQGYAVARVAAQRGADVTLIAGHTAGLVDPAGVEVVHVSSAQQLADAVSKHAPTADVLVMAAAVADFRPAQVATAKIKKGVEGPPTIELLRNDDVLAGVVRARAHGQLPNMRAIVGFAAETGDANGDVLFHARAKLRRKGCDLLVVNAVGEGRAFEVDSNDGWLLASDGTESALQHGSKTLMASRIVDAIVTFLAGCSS
UniProt Q8IDJ8, 1-583: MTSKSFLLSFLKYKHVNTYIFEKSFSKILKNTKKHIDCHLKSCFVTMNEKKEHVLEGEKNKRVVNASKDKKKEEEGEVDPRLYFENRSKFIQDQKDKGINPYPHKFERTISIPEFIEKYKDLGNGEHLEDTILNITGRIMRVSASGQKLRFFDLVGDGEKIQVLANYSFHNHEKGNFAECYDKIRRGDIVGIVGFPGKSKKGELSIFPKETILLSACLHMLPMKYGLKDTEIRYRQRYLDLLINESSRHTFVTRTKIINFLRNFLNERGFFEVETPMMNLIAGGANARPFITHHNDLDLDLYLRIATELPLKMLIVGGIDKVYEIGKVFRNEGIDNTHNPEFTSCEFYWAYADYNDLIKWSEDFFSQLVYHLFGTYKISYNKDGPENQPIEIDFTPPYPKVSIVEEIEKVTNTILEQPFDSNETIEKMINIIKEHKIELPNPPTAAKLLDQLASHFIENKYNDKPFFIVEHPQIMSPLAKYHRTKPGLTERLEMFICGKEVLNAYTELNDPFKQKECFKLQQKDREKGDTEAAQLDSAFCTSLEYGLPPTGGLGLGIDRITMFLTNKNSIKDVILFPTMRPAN
UniProt P9WFT3, whole entry: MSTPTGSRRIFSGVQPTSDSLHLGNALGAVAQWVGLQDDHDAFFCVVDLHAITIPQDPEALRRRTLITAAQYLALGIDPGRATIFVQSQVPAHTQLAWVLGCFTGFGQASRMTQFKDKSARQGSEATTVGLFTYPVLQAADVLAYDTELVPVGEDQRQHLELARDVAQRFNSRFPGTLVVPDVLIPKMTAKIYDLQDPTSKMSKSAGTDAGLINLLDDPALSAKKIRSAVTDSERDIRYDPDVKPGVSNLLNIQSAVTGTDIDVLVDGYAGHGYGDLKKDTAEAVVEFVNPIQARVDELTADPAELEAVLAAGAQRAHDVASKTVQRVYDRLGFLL

The filed quantity is “Percent Effect” (%).
The record does not define 0% and 100%; most values in the screen are far below 50% and negative numbers occur (in some assays of this library far below -100).
The compounds are a random part of those screened.
A dash means the value is not listed here; it may have been measured.

LiHisRS: 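Enzyme assay of histidyl-tRNA synthetase; the read-out is not stated. Target: Histidine-tRNA ligase, Leishmania infantum (UniProt A4I591). Tested at 30 µM. Higher reads as stronger inhibition (inferred: compounds with an IC50 in retests scored well above the rest). The assay is labelled LdHisRS but filed under L. infantum. Of about 69,000 compounds tested this way, about 410 (0.6%) reached 50% or more in at least one test.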
CoaBC: 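Enzyme assay of CoaBC with a phosphate dye (Biomol Green) read at 650 nm. Target: Coenzyme A biosynthesis protein CoaBC, Mycobacterium tuberculosis (UniProt P9WNZ1). Compounds at 30 µM. Direction is inferred from only a few compounds that gave an IC50; most scored high, so higher reads as stronger inhibition. Most strong results did not repeat in a second test. Of about 67,000 compounds tested this way, about 40 (0.06%) reached 50% or more in at least one test.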
PfKRS1: 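Enzyme assay of the cytosolic lysyl-tRNA synthetase in 384-well plates, read by luminescence. Target: Lysine-tRNA ligase, Plasmodium falciparum 3D7 (UniProt Q8IDJ8). Compounds at 30 µM. Direction is inferred from only a few compounds that gave an IC50; most scored high, so higher reads as stronger inhibition. Of about 69,000 compounds tested this way, about 49 (0.071%) reached 50% or more in at least one test.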
MtTrpRS: 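Enzyme assay of tryptophanyl-tRNA synthetase; the read-out is not stated. Target: Tryptophan-tRNA ligase, Mycobacterium tuberculosis (UniProt P9WFT3). Tested at 10 µM. Higher most likely means stronger inhibition; the record gives no direction and few retests gave an IC50. About 65,000 compounds were tested under these conditions; 0.098% (about 64) showed 50% or more at least once.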

| # | compound | LiHisRS | CoaBC | PfKRS1 | MtTrpRS |
|---|---|---|---|---|---|
| 1 | `Cc1ccc(-n2cc(S(=O)(=O)Nc3cccc(C(=O)O)c3C)cn2)cc1` | 13.04% | 0.7264% | 4.637% | -2.214% |
| 2 | `c1ccc(-c2nnc(CN3CCCC3Cn3cncn3)o2)cc1` (configuration not stated) | 0% | 0.4779% | 2.517% | -4.931% |
| 3 | `CNC(=O)[C@@H]1[C@@H](c2ccccc2)CN2CCN(Cc3cc(C)no3)C[C@H]12` | 8.163% | 2.179% | 3.547% | - |
| 4 | `O=C(NCCNC(=O)C1CCCCC1)NCCn1cccc1` | 8.511% | -0.7444% | 4.204% | 0.1904% |
| 5 | `O=C(CCN1CCC(C(=O)c2cc(F)ccc2F)CC1)NC1CCCC1` | 14.4% | 0.9756% | 0.5807% | -2.709% |
| 6 | `c1ccc(CN2Cc3[nH]nc(COCC4CC4)c3C2)nc1` | 12.28% | 6.554% | 0.1707% | -4.158% |
| 7 | `O=C(NC[C@]1(O)CN(Cc2ccccc2F)C[C@H]1O)c1ccccn1` | 14.29% | 1.44% | 9.525% | -0.75% |
| 8 | `Cc1ccc(NC2CCN(C(=O)c3sccc3C3CC3)CC2)nn1` | 26.92% | 1.673% | 4.011% | -1.595% |
| 9 | `CN1CCN(Cc2nnc(C3CCN(C(CO)CO)CC3)n2C)CC1` | 80.72% | 12.53% | 4.907% | 5.303% |
| 10 | `O=C(Nc1cc2c(cc1Br)OCCO2)NC1CCS(=O)(=O)C1` (configuration not stated) | -1.724% | -9.636% | -2.73% | 6.058% |
| 11 | `Cc1nnc(CCNC(=O)[C@H]2CNC[C@@H](C(=O)N3CCCC3)C2)s1` | 9.574% | 4.685% | -24.91% | 1.355% |
| 12 | `Cc1nccn1C1CCCN(C(=O)c2ccnc(-n3ccnc3)c2)C1` (configuration not stated) | 7.018% | -3.106% | -0.3582% | 11.78% |
| 13 | `CCc1noc(C(C)N2CCN(CC(=O)N3CCOCC3)CC2)n1` (configuration not stated) | 6.742% | -2.286% | 1.965% | -1.467% |
| 14 | `Cc1ccc(OCCN(C)C2CCOC2=O)cc1` (configuration not stated) | 4% | 5.765% | 7.41% | 1.877% |
| 15 | `CCn1cnnc1CNC(=O)N1CCC(Cc2cccnc2)CC1` | -5.333% | 2.308% | -2.222% | -0.7037% |
| 16 | `COC(=O)[C@@H]1Cc2c[nH]c3cccc(c23)[C@H](CC(C)C)N1` | 22.97% | 10.82% | 1.513% | -3.263% |
| 17 | `CC(C)(CN1CCCC1)CN1CCC(Cn2cc(CCO)nn2)CC1` | -0.8333% | 3.602% | -3.476% | -3.618% |
| 18 | `CN1C[C@H](c2ccccc2)[C@H]2CN(C(=O)Cc3ccc(O)cc3)CC[C@H]21` | 5.594% | -23.49% | -1.069% | 8.42% |
| 19 | `CC(=O)Nc1nc(C2CCN(C(C)C)CC2)cs1` | 20.62% | -1.937% | 4.401% | - |
| 20 | `CNCC(=O)N1CCCCC1c1nccc(C)n1` (configuration not stated) | 12% | 10.53% | -2.274% | - |
| 21 | `CN(Cc1nccn1CC(F)(F)F)C(=O)c1ccc2c(c1)OCO2` | 10.96% | -3.557% | 0.9689% | 0.6785% |
| 22 | `Cn1c(CN2CCOCC2)cc(=O)c(O)c1CN1CCCC1` | 10.87% | 2.179% | 3.282% | 3.226% |
| 23 | `CC(C)c1cc(NCC(O)c2ccccn2)n2nccc2n1` (configuration not stated) | 11.48% | 0.4292% | 3.927% | 2.902% |
| 24 | `COc1cccc(F)c1C(C)NC(=O)NCc1cc(C(C)C)no1` (configuration not stated) | 4.301% | 2.211% | -1.658% | 0.1282% |
| 25 | `Cc1cccc(NC(=O)CCC(=O)NCC(=O)c2ccccc2F)c1` | 15.49% | - | 1.083% | -3.935% |
| 26 | `Cc1nnc(CN(C)CC(=O)N2CCCC(C)CC2)n1C` (configuration not stated) | 5.882% | -4.049% | 2.171% | -0.08223% |
| 27 | `CCc1ccc(C(=O)N2CCCC(n3nc(C)nc3C)C2)o1` (configuration not stated) | 3.67% | 0% | 0.02668% | -1.664% |
| 28 | `Cc1nc2cc(C(=O)N3C[C@@H](NS(C)(=O)=O)[C@H](C(C)C)C3)ccc2[nH]1` | 10.42% | 5.529% | 1.473% | 9.475% |
| 29 | `CCC(C)(NCC(=O)NC(C)C)c1nccs1` (configuration not stated) | 9.375% | 1.518% | 2.465% | -2.812% |
| 30 | `NC(=O)COc1cccc(C(=O)N2CCCC(n3cccn3)C2)c1` (configuration not stated) | 21.54% | 9.106% | 0.09965% | -0.6803% |
| 31 | `COCCN(C)C(=O)Nc1ccn(-c2cccc(C(F)(F)F)c2)n1` | 9.244% | -0.1626% | 3.826% | -5.133% |
| 32 | `Cc1csc(N2CCCN(CCC(=O)NC(N)=O)CC2)n1` | 7.143% | -6.136% | -1.054% | -6.1% |
| 33 | `CNC(=O)Cc1csc(NC(=O)C2CSCCC(=O)N2)n1` (configuration not stated) | 0% | -5.285% | 4.674% | 8.131% |
| 34 | `Cc1cccc(CC(=O)Nc2cccnc2N2CCC(CO)CC2)c1` | 18.97% | 3.64% | 6.474% | -0.6731% |
| 35 | `O=C(c1ccsc1)N1CCN(CC(O)c2cccc(F)c2)CC1` (configuration not stated) | -2.564% | -14.4% | 1.858% | 9.392% |
| 36 | `Cc1cc(C)n(C2CN(CC(=O)N(C)Cc3ccsc3)C2)n1` | 43.75% | 9.091% | 5.284% | 0.7965% |
| 37 | `Cc1ccc(C(=O)N2CCC3(CCC(=O)N(CC(N)=O)C3)CC2)c(O)c1` | 16.35% | 2.532% | 5.335% | -7.014% |
| 38 | `Cc1noc(C)c1-c1nc(C2CCCNC2)ccc1CO` (configuration not stated) | 8.966% | 1.854% | 0.4102% | -2.98% |
| 39 | `N#Cc1ccc(NCc2cccnc2N2CCC(C(N)=O)CC2)cn1` | 20% | 1.946% | 1.148% | 2.397% |
| 40 | `O=C(NCCNc1ncccn1)N1CCc2ccccc2C1` | 18.67% | 10.74% | 3.337% | 7.253% |
| 41 | `CN(C)c1ccc(CC(=O)N2C[C@H](C3CC3)[C@@H](N)C2)cc1` | 8.791% | 0.6098% | -3.229% | 1.589% |
| 42 | `COc1ccc(C)cc1CC(=O)NC(CC(=O)O)c1ccc(F)cc1` (configuration not stated) | 12% | 7.025% | 1.077% | -1.149% |
| 43 | `CCCNc1nc(CS(=O)(=O)c2ccccc2)cs1` | 11.61% | 3.968% | 6.324% | 0.6353% |
| 44 | `O=C(O)c1cc(-c2ccncc2F)cc(S(=O)(=O)N2CCCCCC2)c1` | 20.78% | 3.576% | 17.66% | -0.4944% |
| 45 | `CC(Cn1cccn1)NCc1nc(-c2ccsc2)no1` (configuration not stated) | 7.895% | -2.216% | -2.805% | 11.61% |
| 46 | `COc1ccc2[nH]nc(CN3CCN(Cc4cccc(F)c4)CC3)c2c1` | 15.38% | -1.098% | 0.6737% | 0.5298% |
| 47 | `CN(CCn1cccn1)S(=O)(=O)c1ccc(C#N)cc1` | -20.18% | 4.912% | 6.837% | -4.461% |
| 48 | `CN(CCc1ccccn1)C(=O)Nc1cccnc1-n1cccn1` | 25.33% | -0.994% | 1.11% | 4.915% |
| 49 | `CCNc1cc2c(nn1)CCN(C(=O)c1ccc3c(c1)OCO3)C2` | 21.43% | 2.915% | 0.8797% | -3.704% |
| 50 | `Cc1ccc([C@H]2CN(C(=O)C3CCC3)C[C@@H]2N)o1` | 12.86% | -6.352% | 4.445% | 2.527% |
| 51 | `Cc1cc(C)n(Cc2cccc(C(=O)N(CCC#N)CCC#N)c2)n1` | 10.17% | -1.38% | 0.05771% | -5.442% |

Repeated from the top, 4 entries:

compound	LiHisRS	CoaBC	PfKRS1	MtTrpRS
Cc1ccc(-n2cc(S(=O)(=O)Nc3cccc(C(=O)O)c3C)cn2)cc1	13.04%	0.7264%	4.637%	-2.214%
c1ccc(-c2nnc(CN3CCCC3Cn3cncn3)o2)cc1 (configuration not stated)	0%	0.4779%	2.517%	-4.931%
CNC(=O)[C@@H]1[C@@H](c2ccccc2)CN2CCN(Cc3cc(C)no3)C[C@H]12	8.163%	2.179%	3.547%	-
O=C(NCCNC(=O)C1CCCCC1)NCCn1cccc1	8.511%	-0.7444%	4.204%	0.1904%

Source: ChEMBL document CHEMBL3988442, “University of Dundee, Small-Polar-MMV Screening Library” (2021).